Sequences of proteins named here, by UniProt entry; tags and fusion partners are left off.
UniProt P08047, whole entry: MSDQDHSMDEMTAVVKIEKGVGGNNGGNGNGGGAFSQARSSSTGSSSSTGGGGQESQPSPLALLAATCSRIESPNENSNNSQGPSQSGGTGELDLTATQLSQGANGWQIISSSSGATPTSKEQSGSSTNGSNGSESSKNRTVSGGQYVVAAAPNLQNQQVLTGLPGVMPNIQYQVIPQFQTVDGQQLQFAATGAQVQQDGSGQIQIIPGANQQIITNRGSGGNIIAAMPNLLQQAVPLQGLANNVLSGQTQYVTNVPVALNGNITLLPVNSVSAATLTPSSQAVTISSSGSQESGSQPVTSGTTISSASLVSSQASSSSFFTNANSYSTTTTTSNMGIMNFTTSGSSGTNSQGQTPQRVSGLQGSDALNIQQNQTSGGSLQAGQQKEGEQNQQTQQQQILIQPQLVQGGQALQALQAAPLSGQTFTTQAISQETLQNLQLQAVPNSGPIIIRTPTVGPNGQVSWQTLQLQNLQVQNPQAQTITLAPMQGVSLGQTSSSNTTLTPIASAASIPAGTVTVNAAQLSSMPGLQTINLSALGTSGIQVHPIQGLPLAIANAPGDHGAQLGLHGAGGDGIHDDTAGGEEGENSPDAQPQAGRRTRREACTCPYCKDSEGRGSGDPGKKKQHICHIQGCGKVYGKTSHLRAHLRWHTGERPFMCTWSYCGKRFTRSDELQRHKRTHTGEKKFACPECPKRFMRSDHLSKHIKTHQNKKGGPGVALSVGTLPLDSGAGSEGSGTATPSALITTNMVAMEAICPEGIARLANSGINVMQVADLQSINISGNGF

According to paper PMC10407929:

Legend:
Experiment in all cases: pull-down
[1] = target: SP1 (Homo sapiens) (UniProt P08047); conditions: 150 mM NaCl, 50 mM Tris pH 8.0, 0.25% NP-40, 1 mM DTT; 4 C, 2 h; 100 ug nuclear extract; protein in an extract; label: 5' biotin (strand 1); variant of SP/KLF bait
[2] = target: T1, BANP (Homo sapiens) (UniProt Q8N9N5); conditions: 150 mM NaCl, 50 mM Tris pH 8.0, 0.25% NP-40, 1 mM DTT, 4 C, 2 h, 100 ug nuclear extract, label: 5' biotin (strand 1)
T1 sequence (looked up, limits assumed): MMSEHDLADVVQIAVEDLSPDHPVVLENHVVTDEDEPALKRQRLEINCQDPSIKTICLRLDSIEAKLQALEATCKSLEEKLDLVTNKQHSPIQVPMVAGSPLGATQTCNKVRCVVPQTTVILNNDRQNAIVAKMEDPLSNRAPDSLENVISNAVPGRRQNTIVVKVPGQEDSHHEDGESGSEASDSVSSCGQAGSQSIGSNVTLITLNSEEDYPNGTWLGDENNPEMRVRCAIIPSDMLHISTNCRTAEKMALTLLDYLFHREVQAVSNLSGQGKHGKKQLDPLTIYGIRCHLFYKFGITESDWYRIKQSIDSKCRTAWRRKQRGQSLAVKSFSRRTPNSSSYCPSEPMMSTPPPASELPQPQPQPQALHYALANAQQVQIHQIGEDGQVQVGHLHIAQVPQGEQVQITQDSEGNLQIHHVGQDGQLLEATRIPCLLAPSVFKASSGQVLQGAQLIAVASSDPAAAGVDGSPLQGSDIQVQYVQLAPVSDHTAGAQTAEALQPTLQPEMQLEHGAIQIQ

[3] = target: T2, BEND3 (Homo sapiens) (UniProt Q5T5X7); conditions: 150 mM NaCl, 50 mM Tris pH 8.0, 0.25% NP-40, 1 mM DTT, 4 C, 2 h, 100 ug nuclear extract, label: 5' biotin (strand 1)
T2 sequence (looked up, limits assumed): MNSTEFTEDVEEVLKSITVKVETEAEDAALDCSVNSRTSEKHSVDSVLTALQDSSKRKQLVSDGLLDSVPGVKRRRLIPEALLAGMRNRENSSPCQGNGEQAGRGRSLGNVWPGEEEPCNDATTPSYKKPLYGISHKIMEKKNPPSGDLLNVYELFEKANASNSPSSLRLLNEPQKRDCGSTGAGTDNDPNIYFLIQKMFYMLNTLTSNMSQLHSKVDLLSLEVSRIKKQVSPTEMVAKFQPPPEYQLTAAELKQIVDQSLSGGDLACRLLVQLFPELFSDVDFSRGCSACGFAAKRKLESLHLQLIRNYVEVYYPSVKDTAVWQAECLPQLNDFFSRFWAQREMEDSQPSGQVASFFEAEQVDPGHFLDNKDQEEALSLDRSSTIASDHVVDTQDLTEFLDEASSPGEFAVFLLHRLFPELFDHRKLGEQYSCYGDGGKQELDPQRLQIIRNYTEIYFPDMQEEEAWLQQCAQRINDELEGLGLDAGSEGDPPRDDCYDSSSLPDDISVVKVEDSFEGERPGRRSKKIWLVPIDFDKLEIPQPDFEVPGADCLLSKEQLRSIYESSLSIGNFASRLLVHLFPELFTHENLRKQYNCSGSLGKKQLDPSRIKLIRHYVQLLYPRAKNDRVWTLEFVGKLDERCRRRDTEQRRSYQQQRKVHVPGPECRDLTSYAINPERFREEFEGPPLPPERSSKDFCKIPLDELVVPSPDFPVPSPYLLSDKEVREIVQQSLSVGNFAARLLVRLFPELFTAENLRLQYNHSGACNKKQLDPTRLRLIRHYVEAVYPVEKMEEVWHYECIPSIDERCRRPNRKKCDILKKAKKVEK

[4] = 5mC at 16,18 (strand 1), 5mC at 11,13 (strand 2), protein in an …, variant of BEND3 bait
[5] = protein in an extract, variant of BEND3 bait
[6] = protein in an extract, variant of CGCG bait
[7] = 5mC at 15,17 (strand 1), 5mC at 14,16 (strand 2), protein in an …, variant of CGCG bait

GAGAGAAAATAAAACTGGCT (double strand) [SP/KLF negative control bait]
binding result [1]: no binding

GCCGCCGCCCTCCCACGCGCTGCCGGGCC (double strand) [BEND3 bait]
binding result ([2]; protein in an extract): no binding

GCCGCCGCCCTCCCACGCGCTGCCGGGCC (double strand) [methylated BEND3 bait]
binding result [2, 4]: no binding | binding result [3, 4]: no binding

GCCGCCGCCCTGCAGCCCCCTGCCGGGCC (double strand) [BEND3 negative control bait]
binding result [2, 5]: no binding | binding result [3, 5]: no binding

GCCGCCGCCCTTCGGCAAGTCCTGCCGGGCC (double strand) [CGCG negative control bait]
binding result [2, 6]: no binding | binding result [3, 6]: no binding

GCCGCCGCCCTTCTCGCGAGACTGCCGGGCC (double strand) [CGCG bait]
binding result ([3]; protein in an extract): binds more weakly

GCCGCCGCCCTTCTCGCGAGACTGCCGGGCC (double strand) [methylated CGCG bait]
binding result [2, 7]: no binding | binding result [3, 7]: binds more weakly

Where cells or extracts were used, other partners may take part. A negative result means that nothing was seen under these conditions. For some assays here: Protein sequences can lack the tags named with them. For some assays here: The comparison behind a weaker result is the experiment's own reference, which may not be listed here.
